Measured values: article PMC10651131
No constants are given. Whether binding was seen depends on the method and setting. Binding seen in cells or lysates may run through a third protein. Some results given as binding are weak or reduced against the parent protein; the word gives no strength. Where a sequence is shown, tags or fusion partners need not be part of it. One block for each molecule: values may come before it.

Experiments:
[1] = molecular target: T1, tagged SRF for coimmunoprecipitation (UniProt Q9JM73); experiment: co-IP; tagged proteins coexpressed two at a time in HEK293T; lysed 24 hours after transfection in Triton X-100 lysis buffer (20 mM Hepes pH 7.5, 150 mM NaCl, 0.5% Triton X-100, 10% glycerol, 1 mM EDTA); pull-down with an HA antibody; blots with HA, Myc or GST antibodies
T1 sequence: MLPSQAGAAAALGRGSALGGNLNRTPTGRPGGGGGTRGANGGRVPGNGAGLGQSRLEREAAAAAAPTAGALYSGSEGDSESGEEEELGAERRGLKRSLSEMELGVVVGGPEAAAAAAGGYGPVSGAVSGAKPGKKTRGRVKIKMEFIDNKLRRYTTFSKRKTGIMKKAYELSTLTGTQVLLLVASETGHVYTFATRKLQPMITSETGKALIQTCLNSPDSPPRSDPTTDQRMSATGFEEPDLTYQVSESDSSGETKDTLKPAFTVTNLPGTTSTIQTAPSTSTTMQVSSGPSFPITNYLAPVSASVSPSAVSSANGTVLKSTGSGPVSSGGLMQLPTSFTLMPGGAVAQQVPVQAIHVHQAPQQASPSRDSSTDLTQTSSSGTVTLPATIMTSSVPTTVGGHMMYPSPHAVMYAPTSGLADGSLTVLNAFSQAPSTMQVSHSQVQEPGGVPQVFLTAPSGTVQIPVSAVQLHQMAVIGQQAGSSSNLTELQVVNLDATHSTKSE

[2] = molecular target: T2, serum response factor (SRF), fused to the S10 or S11 GFP fragment (UniProt Q9JM73); experiment: split reporter; trimolecular fluorescence complementation (TriFC): GFP (S1 to S9) fragment coexpressed with proteins fused to the S10 or S11 GFP fragments in HEK293T cells, epifluorescence 8 hours after transfection; in some panels an untagged third protein coexpressed
T2 sequence: T1 sequence

[3] = substrate: B cell lymphoma 6 (Bcl6), fused to the S10 or S11 GFP fragment (UniProt P41183); experiment: as above

Molecule: tagged Bcl6 for coimmunoprecipitation (from UniProt P41183 1-707)
- binding [1]: binds

Molecule: Bcl6, untagged, overexpressed as third protein in the TriFC assay (from UniProt P41183 1-707)
- binding [2]: binds

B2: serum response factor (SRF), fused to the S10 or S11 GFP fragment (protein, UniProt Q9JM73 1-504)
chain: T1 sequence
- binding [2]: binds

More lines, now with the values ahead:

- binding [3]: no binding
- binding [2]: binds
B1: megakaryoblastic leukemia 2 (MKL2), fused to the S10 or S11 GFP fragment (protein, UniProt P59759 1-1080)
chain: MIDSSKKQPQGFPEILTAEDFEPFKEKECLEGSNQKSLKEVLQLRLQQRRTREQLVDQGIMPPLKSPAAFHEQIKSLERARTENFLKHKIRSRPDRSELVRMHILEETFAEPSLQATQMKLKRARLADDLNEKIAQRPGPMELVEKNILPVDSSVKEAIIGVVKEDYPHTHGEFSFDEDSSDALSPDQPASQESQGSAASPSEPKVSASPPPVTASTPAQFTSVSPAVPEFLKTPLTADQPPTRSTAPVLPTNTVSSAKSGPMLVKQSHPKNPNDKHRSKKCKDPKPRVKKLKYHQYIPPNQKGEKSEPQMDSNYARLLQQQQLFLQLQILSQQQQQQQQQHYNYQTILPAPIKTDKNSSSGSNSGSSSSMPARRPGPLPSSLDDLKVSELKTELKLRGLPVSGTKPDLIERLKPYQEVTSSNLATGSIVAVSSATIVTSNPEVTVALPVTTLHNAVTSSVSTFKADLALPATSSVPHVENAHSPLPISPSPSEQSSLSTDDTNMTDTFTEIMTMMSPSQLLCSSPLRVVSHDDSLSPSSSTLSTLELDAAEKDRKLQEKEKQIEELKRKLEQEQKLVEVLKMQLEVEKRGQQRPPDPQPSDPPHPFNTSDPKHGSVGSSIKDEASLPDCSSPQQPITVPGHSVGQPISTGSQTLVAKKTVVVKQEVPMAQAEQQNVVSQFYLSSQGQPPALVAQPQALLTTQTTQLLLPVSIQGSNVTSVQLPVGSLQLQTPAQGRVQAQPHVAAATQVPAAALPSALTSALPQKQEAFPQHVLGQPQPVRKVFTNSAPNTVLQYQRQPGPTNQQPFVSKTSNPALQSRTAPLAPLQNGPSLASKPSSPPPPQQFVVQHSLFATPITKTKDPPRYEEAIKQTRSTQPALPEVSSVHSQQMDDLFDILIKSGEISFPIKEEPSPISKMKPVTASITTMPVNTVVSRPPPQVQIAPPVSLEPVNSLSASLENQLEAFLDGTLPSATDTGPLQNSSEDRESFSLIEDLQNDLLSHSSMLYQSHSPMETSEAQLVSGTPCLSLDLSDSNLDNMEWLDITMPTTSSGLTPLSTTAPSMFSADFLDPQDLPLPWD

- binding [3]: binds
B3: SRF, untagged, overexpressed as third protein in the TriFC assay (protein, UniProt Q9JM73 1-504)
chain: T1 sequence
